Where cells or extracts were used, other partners may take part. Protein sequences can lack the tags named with them.
Legend:
[1] = target: T1, Drosophila HSF full length (pHSF WT) (Drosophila melanogaster) (UniProt P22813); assay: footprint; conditions: DNase I protection of HSEs, no heat shock needed; fragment from hsp70 -185 to +295 template; protein in a lysate after overexpression; label: 32P 5' end
T1 sequence: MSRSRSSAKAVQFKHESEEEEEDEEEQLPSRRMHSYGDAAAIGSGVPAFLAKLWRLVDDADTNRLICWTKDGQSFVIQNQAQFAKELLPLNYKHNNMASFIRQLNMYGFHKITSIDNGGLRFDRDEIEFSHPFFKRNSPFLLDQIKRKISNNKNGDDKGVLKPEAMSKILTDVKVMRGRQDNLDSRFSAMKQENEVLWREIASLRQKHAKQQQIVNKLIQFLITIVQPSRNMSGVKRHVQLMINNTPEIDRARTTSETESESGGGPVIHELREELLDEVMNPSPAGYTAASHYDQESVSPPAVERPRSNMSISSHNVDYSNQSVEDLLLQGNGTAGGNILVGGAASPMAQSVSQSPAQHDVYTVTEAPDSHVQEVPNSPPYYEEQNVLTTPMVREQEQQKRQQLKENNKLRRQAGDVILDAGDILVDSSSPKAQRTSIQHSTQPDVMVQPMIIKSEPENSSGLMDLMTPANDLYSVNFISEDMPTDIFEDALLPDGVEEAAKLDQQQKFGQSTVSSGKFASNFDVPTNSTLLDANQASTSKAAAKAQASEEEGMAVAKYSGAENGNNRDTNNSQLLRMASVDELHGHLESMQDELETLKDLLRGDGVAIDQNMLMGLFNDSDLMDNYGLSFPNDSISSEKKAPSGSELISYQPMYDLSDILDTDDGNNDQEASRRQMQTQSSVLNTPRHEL

[2] = target: T2, human HSF (HuHSF) (Homo sapiens) (UniProt Q00613); assay: footprint; conditions: footprints essentially identical to Drosophila HSF; protein in a lysate after overexpression; label: 32P 5' end
T2 sequence: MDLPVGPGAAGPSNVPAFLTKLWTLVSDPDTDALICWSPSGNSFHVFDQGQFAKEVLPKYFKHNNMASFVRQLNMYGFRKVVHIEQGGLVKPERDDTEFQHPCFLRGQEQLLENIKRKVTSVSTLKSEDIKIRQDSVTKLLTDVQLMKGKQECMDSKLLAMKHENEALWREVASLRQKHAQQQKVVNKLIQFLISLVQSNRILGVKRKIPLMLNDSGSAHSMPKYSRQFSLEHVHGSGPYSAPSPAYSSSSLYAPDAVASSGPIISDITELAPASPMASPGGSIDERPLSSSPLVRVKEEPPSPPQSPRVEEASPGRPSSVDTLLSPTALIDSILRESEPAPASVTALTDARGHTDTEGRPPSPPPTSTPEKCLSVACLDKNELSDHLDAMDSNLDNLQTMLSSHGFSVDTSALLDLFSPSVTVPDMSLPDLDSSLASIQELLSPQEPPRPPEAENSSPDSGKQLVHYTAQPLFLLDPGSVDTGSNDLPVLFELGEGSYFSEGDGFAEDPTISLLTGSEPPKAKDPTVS

“AAACGGCACACTGTTCTCGTTGCTTCGAGAGAGCGCGCCTCGAATGTTCGCGAAAAGAGCGCCGGAGTATAAATAGAGGCGCTTCGTCGACGGAGCGTCAATTCAATTCA (double strand) [hsp70 promoter (-100 to +10 printed)]”: binds [1]; binds [2].

From patent US5756343, “Cell stress transcriptional factors” (The United States of America as represented by the …, dated 1992)
